In article PMC4901042 one finds binding data, which are given here for one molecule.

Common to all, as to test: two-hybrid; Matchmaker Two-Hybrid System (Clontech); pGBKT7 (BD) and pGADT7 (AD) fusions cotransformed in yeast; SD/-Trp/-Leu/-His/-Ade/X-α-gal (40 μg/ml) with 5 mM 3-AT; grade by the number of clones
Assay [1] deals with APETALA1 (AP1) of Arabidopsis, truncated version without the trans-activating C-terminus (Arabidopsis).
For assay [2], the target named is FLOWERING LOCUS (FLC) of Arabidopsis (Arabidopsis).
Assay [3] has as its target PtAGL24 (Poncirus trifoliata (trifoliate orange)).

These are yes or no findings as the source states them, for the method shown. For part of these data: Binding can be weak; no strength is given.

B1: AGAMOUS-LIKE 24 (AGL24) of Arabidopsis (protein, UniProt O82794 1-220)
chain: MAREKIRIKKIDNITARQVTFSKRRRGIFKKADELSVLCDADVALIIFSATGKLFEFSSSRMRDILGRYSLHASNINKLMDPPSTHLRLENCNLSRLSKEVEDKTKQLRKLRGEDLDGLNLEELQRLEKLLESGLSRVSEKKGECVMSQIFSLEKRGSELVDENKRLRDKLETLERAKLTTLKEALETESVTTNVSSYDSGTPLEDDSDTSLKLGLPSWE
As to B1, the binding result in assay [1] is recorded as “binds”; in assay [2] it was “no binding”; in assay [3], “binds”.
